# Record: PubChem BioAssay AID652259 (Drosophila RNAi Screening Center, 2013)
# Test: 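Identify new Wingless signalling regulators in fly cells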 (primary screen)
# System: Drosophila clone 8 imaginal disc epithelial cells
# Reagent: long dsRNA against Drosophila genes
# Conditions: pathway stimulated by co-transfected Wingless expression plasmid
# Measured: 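Firefly luciferase from a tcf-site Wingless reporter, measured alongside co-transfected Renilla luciferase that tracks transfection; pathway stimulated by a Wingless plasmid; the firefly-to-Renilla ratio is not deposited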
# Direction: firefly reporter light: higher = more Wg reporter light, before normalisation; Renilla control light: higher = more transfected or surviving cells
# Rule for the call: 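Strong candidates differ from their plate mean by at least two out of four per-plate statistical tests; weak candidates meet just one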
# Calls: active = candidate regulator (raises or lowers reporter); inactive = not a candidate
# The deposit covers about 22,000 reagents; shown is a random part of those with a known target gene and a result. In the full data, 233 (1.1%) got an active call. 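Light values are raw, unnormalised plate reads; the ratio scores behind the reporter calls were not deposited.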 The numbers tell different reagents against one gene apart. A plus sign joins genes that one reagent is predicted to hit. No sequences are given here. Not given: the amount of reagent, the time to read-out, the dose of the treatment.
Gene,dsRNA no.,"firefly reporter light, replicate 1","firefly reporter light, replicate 2","Renilla control light, replicate 1","Renilla control light, replicate 2",activity call
PolE2 (DNA polymerase epsilon subunit 2),1,4418,,2069,,inactive
CG15147,1,3140,8534,1174,4427,inactive
CG15147,2,2509,8364,1190,4161,inactive
CG15098,1,6120,,2464,,inactive
Rop (Ras opposite),1,10104,,1661,,inactive
Orco (Odorant receptor co-receptor),1,14237,,2361,,inactive
LKRSDH (Lysine ketoglutarate reductase/saccharopine dehydrogenase),1,8316,,4246,,inactive
Snrk (SNF related kinase),1,13704,,1968,,inactive
Tim8,1,21029,,10358,,inactive
CG42615,1,26208,,12880,,inactive
GstE6 (Glutathione S transferase E6),1,7914,,2818,,inactive
CG3168,1,2183,5171,529,1716,inactive
koko + Vti1b,1,3253,6096,1323,2342,inactive
koko + Vti1b,2,15106,,2583,,inactive
CG10863,1,7088,,2848,,inactive
gammaTub23C (gamma-Tubulin at 23C),1,10429,,3932,,inactive
CG42525,1,3218,,1562,,inactive
CG12974,1,19778,,6246,,inactive
CG13613,1,17537,,14144,,inactive
CG9536,1,7674,,3434,,inactive
tefu (telomere fusion),1,8888,,3143,,inactive
CG8475,1,8298,,4915,,inactive
Lrt (Leucine-rich tendon-specific protein),1,5943,,2987,,inactive
flr (flare),1,5722,,2345,,inactive
beat-VI (beaten path VI),1,7229,,2946,,inactive
beat-VI (beaten path VI),2,7696,,3268,,inactive
CG34057,1,4386,,2496,,inactive
Roe1,1,12080,,3149,,inactive
Agpat3 (1-Acylglycerol-3-phosphate O-acyltransferase 3),1,4198,,1568,,inactive
"ATPsynB (ATP synthase, subunit B)",1,7206,,2470,,inactive
CG11686,1,14156,,1862,,inactive
CG7668,1,8128,,3286,,inactive
Aasdh (Aminoadipate-semialdehyde dehydrogenase),1,2545,5884,828,2587,inactive
Gfat1 (Glutamine:fructose-6-phosphate aminotransferase 1),1,22157,,9104,,inactive
ppk18 (pickpocket 18),1,2105,6562,899,3364,inactive
ppk18 (pickpocket 18),2,2108,7171,771,3312,inactive
CG18675,1,2805,,1781,,inactive
eco (Establishment of cohesion),1,4777,,1939,,inactive
CG14191,1,27048,,1366,,inactive
CG6966,1,9714,,2699,,inactive
Rbcn-3B (Rabconnectin-3B),1,20486,,14407,,inactive
CG8032,1,13409,,3335,,inactive
"ATPsynF (ATP synthase, subunit F)",1,18421,,3719,,inactive
Akh (Adipokinetic hormone),1,7389,,2499,,inactive
CG12862,1,6375,,2152,,inactive
CG17999,1,8215,,2363,,inactive

Taken from above:
Rop (Ras opposite), Renilla control light, replicate 1 = 1661
Result of CG42615 under “firefly reporter light, replicate 1”: 26208
Tim8, activity call: inactive
Agpat3 (1-Acylglycerol-3-phosphate O-acyltransferase 3), firefly reporter light, replicate 1 → 4198
PolE2 (DNA polymerase epsilon subunit 2), activity call = inactive
CG18675, firefly reporter light, replicate 1 → 2805

Further results:
Gene,dsRNA no.,"firefly reporter light, replicate 1","firefly reporter light, replicate 2","Renilla control light, replicate 1","Renilla control light, replicate 2",activity call
CRMP (Collapsin Response Mediator Protein),1,3957,,1532,,inactive
CRMP (Collapsin Response Mediator Protein),2,6821,,2289,,inactive
UQCR-11L (Ubiquinol-cytochrome c reductase 11 kDa subunit-like),1,5.35e5,6.73e5,2.34e5,2.65e5,inactive
Cap-D3 (Chromosome associated protein D3),1,3386,5634,966,1207,inactive
CR15280 (pseudo),1,2552,5192,1296,2312,inactive
CG4783,1,3434,,1175,,inactive
CG10345,1,4291,5497,1619,2093,inactive
CG11756,1,19273,,9083,,inactive
TrissinR (Trissin receptor),1,3814,10274,1041,2181,inactive
TrissinR (Trissin receptor),2,4041,16581,1121,2817,inactive
TrissinR (Trissin receptor),3,1568,5779,1016,2890,inactive
CG42662 + CG30080,1,21003,,20656,,inactive
hfw (halfway),1,13202,,10841,,inactive
Targ2 (Terminal ADP-ribose protein glycohydrolase 2),1,6.51e5,7.77e5,3.04e5,3.13e5,inactive
CG8892,1,7334,,3165,,inactive
lncRNA:CR32385 (long non-coding RNA:CR32385),1,4.76e5,5.28e5,2.50e5,2.26e5,inactive
RpL26 (Ribosomal protein L26),1,16813,,2834,,inactive
CG33012,1,4154,,2101,,inactive
CG33012,2,8017,,4011,,inactive
eEF1beta (eukaryotic translation elongation factor 1 beta),1,10466,,3648,,inactive
rdgC (retinal degeneration C),1,10424,,2321,,inactive
Prosbeta4 (Proteasome beta4 subunit),1,1349,3900,324,1410,inactive
CG7101,1,4736,11833,2006,4253,inactive
CG7101,2,6.46e5,6.24e5,2.46e5,3.32e5,inactive
ZnT63C (Zinc transporter 63C),1,3579,,1756,,inactive
ZnT63C (Zinc transporter 63C),2,3604,,1573,,inactive
ZnT63C (Zinc transporter 63C),3,8785,,4717,,inactive
ZnT63C (Zinc transporter 63C),4,5.52e5,5.63e5,1.34e5,1.27e5,inactive
